Literature values, collected in US20210196697A1, “COMBINATION THERAPIES FOR TREATING BIPOLAR DISORDER AND ADHD, AND METHODS FOR USING THE SAME” (PsychNostics, LLC, priority 2017, published 2021).
At least one structure is not confirmed: it was looked up by name or label, or the drawing left a doubt.

System: slices of cerebral cortex
Details: lithium at concentrations as low as 1 mM

In the case of `[Li]` [Li, lithium], the “accumulation of inositol trisphosphate (IP3)” value is given as “increased”.
